Measurements reported in PubChem BioAssay AID1224830 (NIAID, 2016)
Aim: 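Regulators of TLR4 signalling towards TNF-alpha in macrophage-like cells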 (primary screen). Cells: human THP-1 monocytic leukaemia cells, TNF dual-luciferase reporter clone, PMA-differentiated to macrophage-like cells. Reagents: siRNA pool against human genes, 50 nM. Time to read-out: LPS for 4 h, given about 3 days after siRNA transfection. Challenge: bacterial LPS (TLR4 ligand), 10 ng/ml. Detection: 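Ratio of firefly to renilla light, scaled to the plate median and expressed as a robust z-score per replicate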. Direction: TNF reporter robust z-score: higher = stronger TNF reporter response to LPS. Call rule: 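Each well counts as active if its z-score is over 2.8 or under -1.5; controls are left without a call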.
In all, the deposit lists about 18,000 reagents; shown is an unselected part. Of all reagents, about 2,900 (16%) are marked active. 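Calls are made per well; low scores hint the gene aids the LPS response, high scores that it dampens it.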 Unmarked entries are inactive. Repeated entries: four replicate wells of each siRNA pool.

Against SLC12A4, the entry reads TNF reporter robust z-score -0.88.
Knock-down of SLC12A4 gave: TNF reporter robust z-score 0.11.
Knock-down of SLC12A4 came out at: TNF reporter robust z-score -0.24.
SLC12A4 scored TNF reporter robust z-score 0.46.
Depletion of RHOQ (ras homolog family member Q) gave: TNF reporter robust z-score -0.73.
For RHOQ (ras homolog family member Q), the values are TNF reporter robust z-score 0.46.
Knock-down of RHOQ (ras homolog family member Q) came out at: TNF reporter robust z-score -0.6.
Depletion of RHOQ (ras homolog family member Q) came out at: TNF reporter robust z-score -0.11.
After knock-down of CDKN1C (cyclin dependent kinase inhibitor 1C), the screen gave TNF reporter robust z-score 0.03.
Depletion of CDKN1C (cyclin dependent kinase inhibitor 1C) gave: TNF reporter robust z-score 1.15.
With knock-down of CDKN1C (cyclin dependent kinase inhibitor 1C), the screen gave TNF reporter robust z-score -1.02.
Depletion of CDKN1C (cyclin dependent kinase inhibitor 1C) came out at: TNF reporter robust z-score -0.96.
KCNJ3 (potassium inwardly rectifying channel subfamily J member 3) showed TNF reporter robust z-score -0.17.
For KCNJ3 (potassium inwardly rectifying channel subfamily J member 3), the values are TNF reporter robust z-score 0.01.
Knock-down of KCNJ3 (potassium inwardly rectifying channel subfamily J member 3) came out at: TNF reporter robust z-score -0.35.
After knock-down of KCNJ3 (potassium inwardly rectifying channel subfamily J member 3), the screen gave TNF reporter robust z-score 0.87.
For LETMD1 (LETM1 domain containing 1), the values are TNF reporter robust z-score 0.2.
LETMD1 (LETM1 domain containing 1) scored TNF reporter robust z-score 1.34.
LETMD1 (LETM1 domain containing 1) gave TNF reporter robust z-score 1.7.
With knock-down of LETMD1 (LETM1 domain containing 1), the screen gave TNF reporter robust z-score 0.48.
For OR4K5 (olfactory receptor family 4 subfamily K member 5), the values are TNF reporter robust z-score 0.47.
After knock-down of OR4K5 (olfactory receptor family 4 subfamily K member 5), the screen gave TNF reporter robust z-score -0.48.
After knock-down of OR4K5 (olfactory receptor family 4 subfamily K member 5), the screen gave TNF reporter robust z-score 0.88.
OR4K5 (olfactory receptor family 4 subfamily K member 5) showed TNF reporter robust z-score 0.78.
PTGR1 (prostaglandin reductase 1) gave TNF reporter robust z-score -0.5.
Silencing of PTGR1 (prostaglandin reductase 1) gave: TNF reporter robust z-score -0.4.
Against PTGR1 (prostaglandin reductase 1), the entry reads TNF reporter robust z-score -0.36.
For PTGR1 (prostaglandin reductase 1), the entry reads TNF reporter robust z-score -0.1.
KLHL41 (kelch like family member 41) scored TNF reporter robust z-score 3.82 (active).
For KLHL41 (kelch like family member 41) the deposit lists TNF reporter robust z-score 4 (active).
With knock-down of KLHL41 (kelch like family member 41), the record shows TNF reporter robust z-score 3.42 (active).
With knock-down of KLHL41 (kelch like family member 41), the record shows TNF reporter robust z-score 0.89.
B3GALNT1 gave TNF reporter robust z-score -0.68.
Against B3GALNT1, the values are TNF reporter robust z-score 1.54.
After knock-down of B3GALNT1, the record shows TNF reporter robust z-score 0.53.
For B3GALNT1, the entry reads TNF reporter robust z-score -0.11.
LTB4R (leukotriene B4 receptor) showed TNF reporter robust z-score -1.08.
Against LTB4R (leukotriene B4 receptor), the entry reads TNF reporter robust z-score -1.04.
After knock-down of LTB4R (leukotriene B4 receptor), the record shows TNF reporter robust z-score -1.07.
Depletion of LTB4R (leukotriene B4 receptor) came out at: TNF reporter robust z-score -1.45.
PDHA2 (pyruvate dehydrogenase E1 subunit alpha 2) gave TNF reporter robust z-score 0.53.
After knock-down of PDHA2 (pyruvate dehydrogenase E1 subunit alpha 2), the record shows TNF reporter robust z-score 0.71.
With knock-down of PDHA2 (pyruvate dehydrogenase E1 subunit alpha 2) the results were TNF reporter robust z-score -0.17.
Against PDHA2 (pyruvate dehydrogenase E1 subunit alpha 2), the values are TNF reporter robust z-score 0.09.
TNFSF15 (TNF superfamily member 15) scored TNF reporter robust z-score 0.26.
After knock-down of TNFSF15 (TNF superfamily member 15) the results were TNF reporter robust z-score 0.9.
TNFSF15 (TNF superfamily member 15) showed TNF reporter robust z-score 0.46.
TNFSF15 (TNF superfamily member 15) scored TNF reporter robust z-score -0.06.

Laid out differently: entries from further up
target gene,TNF reporter robust z-score
RHOQ (ras homolog family member Q),-0.11
CDKN1C (cyclin dependent kinase inhibitor 1C),0.03
CDKN1C (cyclin dependent kinase inhibitor 1C),1.15
CDKN1C (cyclin dependent kinase inhibitor 1C),-1.02
CDKN1C (cyclin dependent kinase inhibitor 1C),-0.96
KCNJ3 (potassium inwardly rectifying channel subfamily J member 3),-0.17
KCNJ3 (potassium inwardly rectifying channel subfamily J member 3),0.01
